The list shows a part of the results. Further columns of the screen follow, without active or inactive calls. Most of these compounds were active or inconclusive in the main read-out, so they are no random draw. The note in brackets gives the kind of curve behind each potency; many fits are weak.

The test in a line: qHTS Assay to Find Inhibitors of Chronic Active B-Cell Receptor Signaling. The settings on record: ABC-DLBCL IkBa-CBG/CBR reporter, luminescence ratio (green luciferase fused to IkBa over red control in TMD8 lymphoma cells), 4 h. The essentials: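 TMD8 ABC-DLBCL cells carrying doxycycline-inducible green luciferase fused to IkappaBalpha plus unfused red luciferase were exposed to compounds (up to 46 uM) for 4 hrs at 37C. Activity came from the overlap-corrected green/red luminescence ratio.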

The mark [1] stands for this setting: measured here: CBR red luminescence, cell number.
The mark [2] stands for this setting: measured here: IkBa-CBG green luminescence.

One may read the AC50 as the concentration at which the activity in the assay is half-maximal. Consider `CC(C)(C)OC(=O)[C@H](Cc1ccccc1)NC(=O)c1nc[nH]c1C(=O)NCCCCCN`, for which the AC50 under setting [1] is 23.1 µM [falling, partial curve]. As for `Cc1c(NC(=O)CSc2nnnn2Cc2ccccc2)c(=O)n(-c2ccccc2)n1C`, the half-maximal activity concentration (AC50) under setting [1] is 3.55 µM [rising, partial curve, poor fit]. As to `Cc1ccccc1OCCn1cc(C(=O)C(=O)N2CCOCC2)c2ccccc21`, under setting [1], the AC50 was 1.58 µM [falling, full curve, poor fit].

For the compound `N#C/C(C(=O)N1CCCCC1)=C1\Nc2ccccc2S1`, under setting [1], the concentration at half-maximal activity (AC50) was 1.84 µM [falling, full curve]. Turning to `C=CCSC1=N/C(=C\c2sccc2C)C(=O)S1`, the half-maximal activity concentration (AC50) under setting [1] was 22.4 µM [rising, single point]. Still for that read-out and setting: the value for `Cc1ccc(Cn2cccc(-c3nc4ccccc4s3)c2=O)cc1` was 32.6 µM [falling, single point]; that for `Clc1ccccc1-c1nnc2sc(-c3ccc4c(c3)OCO4)nn12` was 5.8 µM [falling, partial curve]; that for `C/C(=C\c1cccs1)C(=O)c1c(C)cc(C)[nH]c1=O` was 22.4 µM [rising, single point]. For `COc1ccc(C(=O)COC(=O)c2cccs2)cc1`, the AC50 under setting [1] was 29.1 µM [falling, single point]. `OCCNc1nc(Nc2ccccc2)nc2ccccc12`: under setting [1], the AC50 was 16.4 µM [falling, partial curve]. Same read-out and setting: the value for `CN(CC(=O)N1CCCC1)S(=O)(=O)c1ccc(Cl)cc1` was 3.66 µM [rising, partial curve, poor fit]. Consider `N#CCc1c(C#N)c(N)nc(Nc2ccccc2)c1C#N`, for which the AC50 by setting is: under setting [1], 17.8 µM [rising, partial curve]; under setting [2], 35.5 µM [falling, single point]. For `COC(=O)c1ccc(S(=O)(=O)N2CCN(C(c3ccccc3)c3ccccc3)CC2)n1C`, the AC50 under setting [1] is 28.2 µM [rising, single point].

Turning to `CCCCc1ccc(NC(=O)c2cnccn2)cc1`, the concentration at half-maximal activity (AC50) under setting [1] is 7.94 µM [falling, partial curve, poor fit]. Take `COc1ccc(C(=O)COC(=O)c2cc([N+](=O)[O-])ccc2N2CCOCC2)c(OC)c1`: the AC50 under setting [1] was 13 µM [rising, partial curve, poor fit] and the concentration at half-maximal activity (AC50) under setting [2] is 25.9 µM [falling, partial curve, poor fit].

Consider `Cc1nn2cc(-c3ccc(Cl)cc3)cnc2c1Br`, for which the AC50 under setting [1] is 0.0891 µM [rising, full curve, poor fit]. As to `CCOc1ccc(CCNC(=O)CCS(=O)(=O)c2ccc(Br)cc2)cc1OCC`, the concentration at half-maximal activity (AC50) under setting [1] is 0.1 µM [rising, full curve, poor fit].

As to `Cn1c(Sc2nc3ccccc3n2C)nc2ccccc21`, the AC50 under setting [1] is 22.4 µM [falling, single point]. With `O=C(NCc1ccccc1CN1CCCC1)c1cc2ccccc2o1`, the AC50 under setting [1] is 29.1 µM [falling, single point]. Consider `COC(=O)CCC(=O)NC(=S)Nc1sc(C)c(C)c1C(N)=O`, for which the AC50 by setting is: under setting [1], 20.6 µM [rising, partial curve]; under setting [2], 5.8 µM [falling, full curve]. `Cc1cccc(NC(=O)Cn2c(=O)n(C)c3ccccc32)c1`: the half-maximal activity concentration (AC50) under setting [1] is 1.84 µM [rising, partial curve, poor fit]. In the case of `CC(C)Sc1ccccc1C(=O)Nc1ccc2c(c1)n(C)c(=O)n2C`, the half-maximal activity concentration (AC50) was 14.1 µM [rising, partial curve] under setting [1] and 11.2 µM [falling, partial curve] under setting [2].

For `Cc1ccc(-n2c(SCC(=O)NCc3ccco3)nc3c(sc4ccccc43)c2=O)cc1`, under setting [1], the half-maximal activity concentration (AC50) is 29.1 µM [falling, single point]. Regarding `Cc1ccc(N=Cc2c(O)c3ccccc3n(C)c2=O)cc1`, under setting [1], the AC50 was 35.5 µM [falling, single point].

On to `CC1(C)C2CCC1(C)C(OCC[N+](C)(C)CC(=O)OC1CCCCC1)C2` (stereo not drawn), for which the AC50 under setting [1] is 8.2 µM [falling, partial curve]. With `CCn1c(SCC(=O)Nc2ccccc2C(=O)OC)nnc1-c1ccc(N)cc1`, the AC50 under setting [1] is 35.5 µM [falling, single point].

Take `Cc1cccc(C(=O)N[C@@H](C)C(=O)N2CCN(c3ncccn3)CC2)c1`: the AC50 under setting [1] is 4.11 µM [rising, full curve, poor fit]. Same read-out and setting: the value for `CO/N=C(/CS(=O)c1ccc(Br)cc1)c1ccc(OC)cc1` (stereo not drawn) was 4.11 µM [rising, partial curve, poor fit]. On the same count and under the same terms, with `Cc1[nH]c2ccccc2c1-c1csc(NC(=O)CSCCO)n1` the figure was 14.1 µM [rising, single point]. In the case of `CCOC(=O)c1cnc(Nc2nc3ccccc3o2)nc1CN1CCN(C)CC1`, the concentration at half-maximal activity (AC50) under setting [1] was 12.6 µM [falling, partial curve, poor fit].

As for `O=C(NCc1cccnc1)c1cc(-c2ccco2)on1`, the concentration at half-maximal activity (AC50) under setting [1] is 11.2 µM [falling, single point]. The same measure, in the same setting: the value for `CC(OC(=O)c1ccco1)C(=O)Nc1ncc(Cl)cc1Cl` (stereo not drawn) was 7.31 µM [rising, partial curve, poor fit]; that for `O=c1c2ccccc2[nH]c(=S)n1CCCN1CCOCC1` was 1.84 µM [rising, single point]; that for `O=C(CCSCc1ccccc1)Nc1ccc2c(c1)OCCO2` was 3.16 µM [rising, partial curve, poor fit].

Turning to `COc1ccc(S(=O)(=O)N2CCOCC2)cc1NC(=O)CSc1n[nH]c(=O)n1C1CC1`, the concentration at half-maximal activity (AC50) under setting [1] was 0.517 µM [falling, full curve].

For `C#CCOc1ccc(C2C3=C(COC3=O)Nc3cc4c(cc32)OCO4)cc1OC` (stereo not drawn), the half-maximal activity concentration (AC50) was 0.1 µM [rising, full curve, poor fit] under setting [1] and 0.224 µM [falling, full curve] under setting [2]. Consider `CC(C)(C)[C@H]1C=C(C(=O)NCc2nc3ccccc3[nH]2)O[C@@H](OCCCCO)C1`, for which the concentration at half-maximal activity (AC50) under setting [1] is 0.0891 µM [rising, full curve, poor fit].

As for `O=C(CSc1nc2[nH]ncc2c(=O)[nH]1)c1ccccc1`, the concentration at half-maximal activity (AC50) under setting [1] is 3.98 µM [falling, full curve]. Same read-out and setting: the value for `C=CC[C@@H](CC(=O)N(CCO)Cc1ccccc1)C(=O)N[C@H](C)COC(=O)[C@@H](CC=C)Cc1ccc(F)cc1` was 29.1 µM [falling, single point]; that for `Cc1ccccc1C1=N/C(=C/c2cccs2)C(=O)O1` was 35.5 µM [falling, single point]. On to `CCOc1ccc(S(=O)(=O)N(C)c2ccc(OCC(=O)Nc3nccs3)cc2)cc1`, for which the concentration at half-maximal activity (AC50) under setting [1] was 14.1 µM [falling, single point].

As for `Cc1ccc(-c2nn(-c3ccccc3)cc2CO)cc1`, under setting [1], the AC50 is 0.316 µM [rising, full curve]. In the case of `COc1cc(F)cc(-c2ccc3c(c2)c(-c2cccs2)c(-c2cc(OC)cc(OC)c2)n3C)c1`, the concentration at half-maximal activity (AC50) under setting [1] is 29.1 µM [rising, single point] and the AC50 under setting [2] is 29.1 µM [falling, single point]. Regarding `O=C(NNc1ccccc1Br)C(=O)n1ccc2ccccc21`, the AC50 under setting [1] is 2.06 µM [falling, full curve]. Turning to `Cc1cccc(C)c1NC(=O)CNC(=O)c1cn(-c2ccccc2)nc1-c1ccccc1`, the AC50 under setting [1] was 22.4 µM [rising, partial curve, poor fit].

For `O=C(CCCn1c(=S)[nH]c2ccccc2c1=O)N1CCCCC1`, the AC50 under setting [1] was 8.2 µM [falling, partial curve]. Turning to `Cc1nnc(C)n1/N=C/c1cc2ccccc2nc1Cl`, the AC50 under setting [2] is 35.5 µM [falling, partial curve, poor fit]. In the case of `CC(C)c1ccc(/C=C/C(=O)NC(=S)Nc2ccc(CN3CCOCC3)cc2)cc1`, the concentration at half-maximal activity (AC50) under setting [1] was 29.1 µM [rising, single point]. For `COCC(=O)N/N=C\c1ccc(OC/C=C/c2ccccc2)c(OC)c1`, the concentration at half-maximal activity (AC50) under setting [1] was 17.8 µM [rising, single point]. On the same count and under the same terms, with `O=C(NCC1CC1)C1CCCN(S(=O)(=O)c2ccc(-n3cnnn3)cc2)C1` (stereo not drawn) the figure was 16.4 µM [falling, single point]; with `CCc1ccc(CCC(=O)Nc2sc(C)c(C)c2C(=O)OC)o1`, 1.3 µM [falling, partial curve, poor fit]. For `COC(=O)C1(Cc2cc(-c3ccccc3)no2)CCN(C(=O)OC(C)(C)C)CC1`, under setting [1], the concentration at half-maximal activity (AC50) was 3.98 µM [falling, partial curve]. Same read-out and setting: the value for `COc1ccc(C2NC(=O)NC(C)=C2[N+](=O)[O-])cc1OC` (stereo not drawn) was 35.5 µM [rising, single point]; that for `CCOC(=O)C1(CC2CCCCO2)CCN(Cc2cc(F)ccc2-n2cccn2)CC1` (stereo not drawn) was 25.1 µM [falling, single point]. Same read-out and setting: the value for `COc1cccc(CC(=O)Nc2ccc(-c3csc(C)n3)cc2)c1` was 22.4 µM [falling, single point]; that for `COC(=O)CCCC1=CC2=C(c3ccccc3)C(=O)C(C)(OC(=O)C3CCCC3)C(=O)C2=CN1C1CCCCC1` (stereo not drawn) was 3.98 µM [rising, partial curve, poor fit]; that for `CCCN1C(=O)c2ccccc2NC1c1ccc(Cl)c(Cl)c1` (stereo not drawn) was 35.5 µM [falling, single point].

As to `CCCCc1c(O)nc2n(c1=O)CCS2`, under setting [1], the AC50 was 11.6 µM [falling, partial curve, poor fit]. Take `CC1=[N+](C)N(c2ccccc2)C(=O)C1N=Cc1c(Cl)cccc1Cl` (stereo not drawn): the AC50 under setting [1] was 5.17 µM [rising, partial curve, poor fit]. With `O=C(C1=NN[C@@H]2C(=O)N(c3ccccc3C(F)(F)F)C(=O)[C@H]12)c1cnccn1`, under setting [1], the AC50 was 31.6 µM [rising, single point]. Regarding `CC1(C)CC(=O)C2=C(C1)NC1=C(C(=O)c3ccccc31)C2c1ccc(Cl)cc1` (stereo not drawn), under setting [1], the AC50 is 29.1 µM [falling, single point]. Consider `CN(CC(=O)Nc1cccc2ccccc12)C(=O)/C=C/c1cccs1`, for which, under setting [1], the AC50 is 9.2 µM [falling, partial curve].

The values above are taken from PubChem BioAssay AID493014 (National Center for Advancing Translational Sciences (NCATS), 2011).
